Assay results reported in PubChem BioAssay AID624291 (National Center for Advancing Translational Sciences (NCATS), 2012).
The campaign covered roughly 350,000 compounds. About 220 (0.063%) were called active. Inconclusive results, whose numbers are uncertain, are shown with a selection of clear calls. Calls come from the whole dose curve; as a rule, active = well fitted activation curve with a large enough effect; inconclusive = small, poorly fitted or top-dose-only effect; inactive = no such curve, though single readings can be large or run the other way. Potencies beside an inconclusive call are fits to weak or partial responses and may not hold up.

Assay: qHTS for Activators of Integrin-Mediated Alleviation for Muscular Dystrophy; note: nearly all actives have a fitted effect of over 60% in size
Details: alpha7betagal myoblasts, beta-gal FDG fluorescence, 48 h; series mostly up to 38.3 µM
Outline: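 alpha7betagal+/- myoblasts (passage 13, 250/well) treated 48 h at 37C with compounds at 1:260 dilution of DMSO stock. Lysed, then beta-galactosidase activity read as FDG fluorescence (ex 480/em 540) after 30 min, with pre-read for autofluorescence.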
Potency is the fitted concentration of half-maximal effect.

| Compound | Potency |
| --- | --- |
| CCc1ccc(-c2cc(C)no2)cc1S(=O)(=O)Nc1ccc(C)cn1 | inactive |
| COC(=O)[C@H](CC(C)C)NC(=O)c1cc2c(cn1)[nH]c1ccccc12 | inactive |
| CS(=O)(=O)N1CCC(C(=O)Nc2ccc(Cl)cc2)CC1 | inconclusive: 22.4 µM [activator, single point] |
| COc1ccc(Cl)cc1C(=O)NNC(=O)c1ccc(F)c(S(=O)(=O)N2CCOCC2)c1 | inactive |
| Cc1ccc(C(=O)CN(C(=O)c2ccc(Cl)cc2)N2C(=O)CCC2=O)cc1 | inconclusive: 11.2 µM [activator, partial curve, poor fit] |
| CCOC(=O)c1ccc(NC(=O)CSc2nc(SC)ns2)cc1 | inconclusive: 3.16 µM [activator, partial curve, poor fit] |
| CC(C)NS(=O)(=O)c1cc(F)ccc1CN1C(=O)c2cccnc2C1=O | inconclusive: 2.82 µM [activator, single point] |
| CCN(CC)C(=O)COc1ccc(N(C)S(=O)(=O)c2ccc(NC(C)=O)cc2)cc1 | inconclusive: 17.8 µM [activator, single point] |
| Cc1cc(C)c(Cn2c3ccccc3c3cnn(CC(=O)NCCN4CCOCC4)c(=O)c32)c(C)c1 | inactive |
| N#Cc1nc(-c2ccc(OCc3ccc(Cl)cc3)cc2)oc1N1CCC(C(N)=O)CC1 | inactive |
| O=C(c1cc(F)ccc1F)C1CCCN(Cc2cccn2-c2ccccn2)C1 (centres undefined) | inconclusive: 5.01 µM [activator, single point] |
| CN(Cc1c(C(=O)N/N=C/c2ccc(O)cc2)nnn1-c1nonc1N)C1CCCCC1 | inconclusive: 5.01 µM [activator, single point] |
| Cc1c(C(=O)N2CCOCC2)c(S(=O)(=O)Nc2ccc(OC(F)(F)F)cc2)c(C)n1C | inconclusive: 5.62 µM [activator, partial curve, poor fit] |
| Cc1ccc(OCC(O)CN2CCN(c3ccccc3)CC2)cc1 (centres undefined) | inactive |
| COc1ccc(C)cc1NC(=O)CCNS(=O)(=O)c1cccc2nonc12 | inactive |
| Cc1nn(C)cc1CNC(=O)C1CCC(=O)N(CC2CCCCC2)C1 (centres undefined) | inconclusive: 1.12 µM [activator, partial curve, poor fit] |
| COC(=O)[C@H](Cc1ccccc1)N(Cc1ccccc1)S(=O)(=O)N(Cc1ccccc1)[C@@H](Cc1ccccc1)C(=O)OC | inactive |
| O=C(CCc1c[nH]c2ccccc12)N1CCN(c2ccc(F)cc2)CC1 | inconclusive: 12.6 µM [activator, single point] |
| CCOC(=O)N1CCC(NC(=O)c2cc(COc3ccc(F)cc3Cl)on2)CC1 | inconclusive: 28.2 µM [activator, single point] |

Part of the list above, reformatted:
Compound	Potency
Cc1ccc(C(=O)CN(C(=O)c2ccc(Cl)cc2)N2C(=O)CCC2=O)cc1	inconclusive: 11.2 µM [activator, partial curve, poor fit]
CCOC(=O)c1ccc(NC(=O)CSc2nc(SC)ns2)cc1	inconclusive: 3.16 µM [activator, partial curve, poor fit]
